According to the supplement of paper PMC10849652:
The other results are listed elsewhere or left out.

Amino acid sequences for entries named in this document (tags omitted). A change or cut given only in a name is not applied to a line headed by its entry.
UniProt Q2TBE0: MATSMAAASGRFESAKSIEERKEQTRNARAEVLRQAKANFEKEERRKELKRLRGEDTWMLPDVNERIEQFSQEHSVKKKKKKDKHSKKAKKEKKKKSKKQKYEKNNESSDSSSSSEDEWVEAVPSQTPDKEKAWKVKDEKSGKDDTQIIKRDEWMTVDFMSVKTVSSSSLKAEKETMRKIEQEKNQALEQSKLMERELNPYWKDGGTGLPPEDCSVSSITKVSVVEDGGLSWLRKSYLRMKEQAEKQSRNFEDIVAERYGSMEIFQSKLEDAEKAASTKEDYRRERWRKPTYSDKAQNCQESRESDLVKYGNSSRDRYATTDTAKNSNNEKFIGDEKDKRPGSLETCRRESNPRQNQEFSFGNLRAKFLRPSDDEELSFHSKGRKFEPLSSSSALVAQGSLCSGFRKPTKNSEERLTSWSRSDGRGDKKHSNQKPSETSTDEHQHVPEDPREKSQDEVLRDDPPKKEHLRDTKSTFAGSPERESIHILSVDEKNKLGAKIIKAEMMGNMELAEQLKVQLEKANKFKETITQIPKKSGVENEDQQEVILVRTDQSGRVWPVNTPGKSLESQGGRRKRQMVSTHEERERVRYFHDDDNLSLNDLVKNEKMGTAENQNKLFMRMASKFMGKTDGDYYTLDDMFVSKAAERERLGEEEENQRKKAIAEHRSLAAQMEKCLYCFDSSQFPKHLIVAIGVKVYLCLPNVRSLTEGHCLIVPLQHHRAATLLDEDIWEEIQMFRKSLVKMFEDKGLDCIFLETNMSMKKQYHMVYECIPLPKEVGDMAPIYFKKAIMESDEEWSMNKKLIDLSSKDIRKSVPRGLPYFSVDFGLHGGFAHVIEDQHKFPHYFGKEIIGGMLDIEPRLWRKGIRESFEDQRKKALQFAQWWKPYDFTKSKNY
UniProt Q6UW02: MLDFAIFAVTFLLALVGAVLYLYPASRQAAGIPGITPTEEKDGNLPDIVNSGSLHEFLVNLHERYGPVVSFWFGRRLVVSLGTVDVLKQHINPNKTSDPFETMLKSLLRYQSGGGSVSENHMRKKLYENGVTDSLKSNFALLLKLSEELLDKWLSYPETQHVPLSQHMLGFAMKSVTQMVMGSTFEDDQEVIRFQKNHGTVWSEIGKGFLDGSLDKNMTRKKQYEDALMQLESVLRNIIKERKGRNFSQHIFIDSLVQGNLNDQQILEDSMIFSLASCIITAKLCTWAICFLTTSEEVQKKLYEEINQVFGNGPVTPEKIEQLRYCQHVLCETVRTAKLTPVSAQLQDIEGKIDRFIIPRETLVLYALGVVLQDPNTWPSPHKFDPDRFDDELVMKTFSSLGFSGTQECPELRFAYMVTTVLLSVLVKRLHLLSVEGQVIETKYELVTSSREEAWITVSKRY
UniProt Q9Y6M4: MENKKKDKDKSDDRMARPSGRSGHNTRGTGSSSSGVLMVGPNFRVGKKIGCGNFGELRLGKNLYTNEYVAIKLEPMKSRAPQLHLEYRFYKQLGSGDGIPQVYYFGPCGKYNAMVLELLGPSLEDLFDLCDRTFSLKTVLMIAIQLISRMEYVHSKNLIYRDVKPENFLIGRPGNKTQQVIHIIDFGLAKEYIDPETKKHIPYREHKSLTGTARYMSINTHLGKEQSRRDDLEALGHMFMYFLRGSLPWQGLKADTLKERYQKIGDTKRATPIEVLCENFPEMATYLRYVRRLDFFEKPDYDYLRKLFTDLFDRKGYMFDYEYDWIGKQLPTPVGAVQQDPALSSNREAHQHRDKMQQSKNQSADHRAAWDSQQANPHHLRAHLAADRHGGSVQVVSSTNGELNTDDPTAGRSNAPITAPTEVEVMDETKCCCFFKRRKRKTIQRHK
UniProt O95825: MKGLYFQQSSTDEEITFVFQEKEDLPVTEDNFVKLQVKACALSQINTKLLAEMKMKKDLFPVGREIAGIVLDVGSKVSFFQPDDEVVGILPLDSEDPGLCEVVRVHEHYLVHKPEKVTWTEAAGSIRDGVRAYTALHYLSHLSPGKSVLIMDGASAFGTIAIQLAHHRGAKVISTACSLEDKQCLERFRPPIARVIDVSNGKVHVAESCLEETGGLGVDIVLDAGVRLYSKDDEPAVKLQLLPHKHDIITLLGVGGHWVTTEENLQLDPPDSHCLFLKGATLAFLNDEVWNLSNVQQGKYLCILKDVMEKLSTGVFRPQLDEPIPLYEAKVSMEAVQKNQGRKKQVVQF
UniProt Q9HCG8: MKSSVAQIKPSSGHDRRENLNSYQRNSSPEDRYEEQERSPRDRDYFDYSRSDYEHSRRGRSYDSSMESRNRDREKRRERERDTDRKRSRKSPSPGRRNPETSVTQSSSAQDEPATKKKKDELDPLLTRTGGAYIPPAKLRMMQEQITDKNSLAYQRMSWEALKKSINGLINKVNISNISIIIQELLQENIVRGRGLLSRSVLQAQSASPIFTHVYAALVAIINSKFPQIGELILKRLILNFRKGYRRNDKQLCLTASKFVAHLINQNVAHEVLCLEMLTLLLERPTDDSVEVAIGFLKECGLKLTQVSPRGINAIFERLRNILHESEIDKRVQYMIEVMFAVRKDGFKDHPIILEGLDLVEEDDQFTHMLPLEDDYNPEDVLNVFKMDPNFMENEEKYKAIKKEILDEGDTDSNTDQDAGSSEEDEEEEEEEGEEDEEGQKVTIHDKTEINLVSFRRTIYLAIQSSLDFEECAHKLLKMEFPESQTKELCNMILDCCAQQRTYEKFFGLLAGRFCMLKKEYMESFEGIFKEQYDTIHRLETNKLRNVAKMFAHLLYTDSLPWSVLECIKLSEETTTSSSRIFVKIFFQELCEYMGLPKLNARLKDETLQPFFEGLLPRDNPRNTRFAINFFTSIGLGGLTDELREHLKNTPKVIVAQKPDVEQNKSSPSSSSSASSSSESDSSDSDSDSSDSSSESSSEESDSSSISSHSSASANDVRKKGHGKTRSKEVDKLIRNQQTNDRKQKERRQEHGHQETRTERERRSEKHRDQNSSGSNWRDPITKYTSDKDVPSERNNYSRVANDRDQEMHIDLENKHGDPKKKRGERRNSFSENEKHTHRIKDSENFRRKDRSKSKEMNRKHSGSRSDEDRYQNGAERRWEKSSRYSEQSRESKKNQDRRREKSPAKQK
UniProt Q13619, whole entry, looked up: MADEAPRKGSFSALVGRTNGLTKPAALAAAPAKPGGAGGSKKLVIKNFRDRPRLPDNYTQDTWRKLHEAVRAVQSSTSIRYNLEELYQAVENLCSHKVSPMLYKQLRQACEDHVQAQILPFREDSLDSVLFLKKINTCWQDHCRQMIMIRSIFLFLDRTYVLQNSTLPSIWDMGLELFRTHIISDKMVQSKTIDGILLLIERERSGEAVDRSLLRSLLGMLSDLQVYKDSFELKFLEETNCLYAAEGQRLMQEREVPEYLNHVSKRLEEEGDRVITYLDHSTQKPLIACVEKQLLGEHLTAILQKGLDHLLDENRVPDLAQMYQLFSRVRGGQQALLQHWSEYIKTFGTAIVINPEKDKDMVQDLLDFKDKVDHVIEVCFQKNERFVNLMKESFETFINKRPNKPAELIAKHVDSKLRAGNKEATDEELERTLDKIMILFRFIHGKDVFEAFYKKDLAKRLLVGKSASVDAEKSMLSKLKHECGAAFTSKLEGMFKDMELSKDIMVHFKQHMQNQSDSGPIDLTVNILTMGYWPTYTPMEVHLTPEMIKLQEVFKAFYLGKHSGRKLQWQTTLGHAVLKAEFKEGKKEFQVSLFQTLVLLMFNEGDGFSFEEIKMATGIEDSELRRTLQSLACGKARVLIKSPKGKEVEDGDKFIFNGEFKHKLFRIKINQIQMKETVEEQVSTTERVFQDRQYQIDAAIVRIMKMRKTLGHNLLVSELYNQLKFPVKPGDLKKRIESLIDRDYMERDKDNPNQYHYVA
UniProt P0C2W7: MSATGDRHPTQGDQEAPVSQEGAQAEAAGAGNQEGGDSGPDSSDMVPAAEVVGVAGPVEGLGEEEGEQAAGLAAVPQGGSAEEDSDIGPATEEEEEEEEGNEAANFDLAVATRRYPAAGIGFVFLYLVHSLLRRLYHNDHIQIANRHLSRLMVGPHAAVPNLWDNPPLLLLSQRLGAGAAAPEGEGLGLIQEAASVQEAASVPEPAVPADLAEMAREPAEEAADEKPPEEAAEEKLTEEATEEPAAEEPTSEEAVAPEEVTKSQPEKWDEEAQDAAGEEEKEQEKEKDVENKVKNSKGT
UniProt Q96SW2: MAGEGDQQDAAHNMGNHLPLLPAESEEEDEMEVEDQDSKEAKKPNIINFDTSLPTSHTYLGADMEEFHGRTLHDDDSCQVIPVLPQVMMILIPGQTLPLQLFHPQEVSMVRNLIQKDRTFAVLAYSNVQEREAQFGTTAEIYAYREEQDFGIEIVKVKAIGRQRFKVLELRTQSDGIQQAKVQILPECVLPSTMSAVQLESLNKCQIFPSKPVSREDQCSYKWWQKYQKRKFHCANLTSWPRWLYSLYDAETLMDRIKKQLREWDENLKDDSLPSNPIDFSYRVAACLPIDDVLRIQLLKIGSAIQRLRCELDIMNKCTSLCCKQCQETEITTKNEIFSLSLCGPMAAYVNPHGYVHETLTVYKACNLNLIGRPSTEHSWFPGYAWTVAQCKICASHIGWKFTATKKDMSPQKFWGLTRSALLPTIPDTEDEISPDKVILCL

Experiments:
Experiment in all cases: log2 fold change, soluble protein after heating vs DMSO (PISA); higher = thermal stabilisation; K562 lysate, 10 uM; active = over 0.2 and 3.5 SD of the protein, either way, in both replicates (recomputed)
erlotinib = compound: C#Cc1cccc(Nc2ncnc3cc(OCCOC)c(OCCOC)cc23)c1 [erlotinib]
Summary of the method: (§1)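 Thermal stability, expressed as log-two fold change relative to solvent controls, is given from duplicates. Crude K562 extract in PBS pH 7.4 with 1 mM MgCl2, at 1 mg/mL protein, was treated with 10 μM compound for 30 min and heated in aliquots for 3 min across 48°C-58°C. After pooling, adjustment to 0.5% NP-40 at 4°C and centrifugation at 21,000xg for 90 min, supernatant protein was measured by TMTpro 16plex LC-MS/MS with channel sums equalised.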

[1] = compound: C/C(=N\NC(=O)C1=CC(=CC=C1)S(=O)(=O)N2CCOCC2)/C3=C(C=CC(=C3)Cl)O
Summary of the method: as §1

[2] = compound: C1=CC(=CC=C1C2=NC3=C(N2)C=C(C=C3)C(=O)N)OC4=CC=C(C=C4)Cl
Summary of the method: as §1

[3] = compound: C1=CC2=C(C=CC(=C2)/C=C\3/C(=O)NC(=NCC4=CC=CS4)S3)N=C1
Summary of the method: as §1

[4] = compound: C1=CC2=NC=CN=C2C=C1/C=C/3\C(=O)NC(=O)S3
Summary of the method: as §1

[5] = compound: C1=CC=C(C=C1)C2=NC(=C(N2)C3=CC=NC=C3)C4=CC(=C(C=C4)Cl)O
Summary of the method: as §1

[6] = compound: C1=CC=C2C(=C1)C3=NNC4=CC=CC(=C43)C2=O
Summary of the method: as §1

[7] = compound: C1CCN(C1)C(=O)NC2=CC=CC(=C2)NC3=NC=C(C(=N3)NCCC4=CN=CN4)Br
Summary of the method: as §1

[8] = compound: C1CN(CCC1(CC2=CC=C(C=C2)Cl)N)C3=NC=NC4=C3C=CN4
Summary of the method: as §1

IRAK-1-4 Inhibitor I = compound: C1COCCN1CCN2C3=CC=CC=C3N=C2NC(=O)C4=CC(=CC=C4)[N+](=O)[O-] [IRAK-1-4 Inhibitor I]
Summary of the method: as §1

ibrutinib = compound: C=CC(=O)N1CCC[C@@H](n2nc(-c3ccc(Oc4ccccc4)cc3)c3c(N)ncnc32)C1 [ibrutinib]
Summary of the method: as §1

[9] = compound: CC(=O)c1cnc2ccc(-c3cc(Cl)c(O)c(Cl)c3)nc2c1N[C@H]1CC[C@H](CN(C)C)CC1
Summary of the method: as §1

ralimetinib = compound: CC(C)(C)Cn1c(N)nc2ccc(-c3[nH]c(C(C)(C)C)nc3-c3ccc(F)cc3)nc21 [ralimetinib]
Summary of the method: as §1

[10] = compound: CC(C)(O)CC(=O)NCCn1ccc2ncnc(Nc3ccc(Oc4cccc(C(F)(F)F)c4)c(Cl)c3)c21
Summary of the method: as §1

[11] = compound: CC(C)C1=C2N=C(C=C(N2N=C1)NCC3=CC=CC=C3)NCCCCCCN
Summary of the method: as §1

[12] = compound: CC1=C(C(CC(=O)N1)C2=CC=C(C=C2)C(F)(F)F)C(=O)NC3=C(C=C4C(=C3)C=NN4)F
Summary of the method: as §1

[13] = compound: CC1=C(C2=C(C=C1)C(=O)C3=CC=CC=C3N2CCCN)C
Summary of the method: as §1

[14] = compound: CC1=C(C=C(C=C1)NC(=O)C2=CC(=CC=C2)C(C)(C)C#N)NC3=CC4=C(C=C3)N=CN(C4=O)C
Summary of the method: as §1

[15] = compound: CC1=C(C=C(C=C1)NC(=O)C2=CC(=CC=C2)N(C)C)NC(=O)C3=CC=C(C=C3)O
Summary of the method: as §1

[16] = compound: CC1=CC=C(C=C1)SC2=C3C=C(SC3=CN=C2)C(=O)N
Summary of the method: as §1

Target | log2 fold change (erlotinib) | log2 fold change [1] | log2 fold change [2] | log2 fold change [3] | log2 fold change [4] | log2 fold change [5] | log2 fold change [6] | log2 fold change [7] | log2 fold change [8] | log2 fold change (IRAK-1-4 Inhibitor I) | log2 fold change (ibrutinib) | log2 fold change [9] | log2 fold change (ralimetinib) | log2 fold change [10] | log2 fold change [11] | log2 fold change [12] | log2 fold change [13] | log2 fold change [14] | log2 fold change [15] | log2 fold change [16]
CWF19L2 (UniProt Q2TBE0) | inactive: -0.049 | inactive: -0.009 | inactive: -0.011 | inactive: 0.015 | inactive: 0.054 | inactive: 0.024 | inactive: -0.03 | inactive: -0.011 | inactive: -0.041 | inactive: -0.027 | inactive: 0.069 | inactive: 0.21 | inactive: 0.032 | inactive: -0.033 | inactive: 0.005 | inactive: 0.011 | inactive: -0.019 | inactive: 0.031 | inactive: 0.022 | inactive: 0.114
CYP20A1 (UniProt Q6UW02) | inactive: -0.002 | inactive: -0.037 | inactive: -0.055 | inactive: -0.029 | inactive: -0.012 | inactive: -0.02 | inactive: -0.064 | inactive: 0.028 | inactive: 0 | inactive: 0.024 | inactive: -0.022 | inactive: -0.023 | inactive: -0.011 | inactive: -0.075 | inactive: -0.022 | inactive: 0.017 | inactive: 0.021 | inactive: -0.015 | inactive: -0.021 | inactive: -0.01
CSNK1G3 (UniProt Q9Y6M4) | inactive: -0.115 | inactive: -0.018 | inactive: 0.097 | inactive: 0.149 | inactive: 0.073 | inactive: -0.043 | inactive: 0.234 | inactive: 0.018 | inactive: 0.079 | inactive: 0.022 | inactive: -0.025 | active: 0.529 | inactive: 0.003 | inactive: -0.048 | inactive: -0.038 | inactive: -0.007 | inactive: 0.024 | inactive: 0.031 | inactive: -0.066 | inactive: 0.132
CRYZL1 (UniProt O95825) | inactive: -0.043 | inactive: -0.005 | inactive: 0.011 | inactive: -0.016 | inactive: -0.008 | inactive: 0.023 | inactive: 0.007 | inactive: -0.024 | inactive: 0.013 | inactive: 0.033 | inactive: -0.01 | inactive: -0.004 | inactive: 0.007 | inactive: -0.058 | inactive: -0.023 | inactive: -0.042 | inactive: 0 | inactive: 0.022 | inactive: 0.018 | inactive: -0.019
CWC22 (UniProt Q9HCG8) | inactive: 0.058 | inactive: 0.006 | inactive: -0.046 | inactive: -0.009 | inactive: -0.032 | inactive: -0.025 | inactive: -0.092 | inactive: -0.014 | inactive: -0.006 | inactive: -0.017 | inactive: 0.027 | inactive: -0.007 | inactive: 0.007 | inactive: -0.002 | inactive: -0.005 | inactive: 0.06 | inactive: 0 | inactive: -0.002 | inactive: 0.028 | inactive: -0.009
CUL4A (UniProt Q13619) | inactive: 0.013 | inactive: 0.022 | inactive: -0.009 | inactive: 0.006 | inactive: -0.009 | inactive: 0.002 | inactive: -0.02 | inactive: -0.024 | inactive: -0.012 | inactive: 0.039 | inactive: 0.017 | inactive: -0.004 | inactive: -0.012 | inactive: -0.022 | inactive: 0.004 | inactive: -0.004 | inactive: -0.02 | inactive: 0.012 | inactive: 0.015 | inactive: 0.002
CT47B1 (UniProt P0C2W7) | inactive: 0.128 | inactive: -0.1 | inactive: 0.066 | inactive: 0.113 | inactive: -0.301 | inactive: 0.002 | inactive: -0.221 | inactive: -0.022 | inactive: 0.031 | inactive: -0.037 | inactive: 0.009 | inactive: -0.034 | inactive: -0.097 | inactive: -0.072 | inactive: 0.003 | inactive: -0.075 | inactive: 0.003 | inactive: 0.111 | inactive: 0.088 | inactive: -0.119
CRBN (UniProt Q96SW2) | inactive: 0.041 | inactive: -0.012 | inactive: 0.037 | inactive: 0.061 | inactive: -0.055 | inactive: -0.061 | inactive: -0.095 | inactive: -0.02 | inactive: -0.004 | inactive: 0.017 | inactive: -0.015 | inactive: -0.006 | inactive: 0.004 | inactive: -0.045 | inactive: -0.007 | inactive: 0.01 | inactive: -0.072 | inactive: -0.006 | inactive: -0.001 | inactive: -0.022
